Read-outs that look alike come from different tables or passages of the source. These are yes or no findings as the source states them, for the method shown. In cells and extracts the contact can be indirect. A yes stands for co-enrichment or nearness to the bait. Other partners may have been found. Where a sequence is shown, tags or fusion partners need not be part of it.
T1: GST-DNAJ-myc-TAT (recombinant sacsin DNAJ domain, residues 4316-4420 of sacsin) (mouse | not stated) (UniProt Q9JLC8)
T1 sequence: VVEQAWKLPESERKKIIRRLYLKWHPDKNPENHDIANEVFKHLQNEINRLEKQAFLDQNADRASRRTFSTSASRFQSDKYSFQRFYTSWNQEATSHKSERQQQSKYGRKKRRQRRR

The chains behind the UniProt entries cited, without tags or fusion partners.
UniProt Q9D1G1: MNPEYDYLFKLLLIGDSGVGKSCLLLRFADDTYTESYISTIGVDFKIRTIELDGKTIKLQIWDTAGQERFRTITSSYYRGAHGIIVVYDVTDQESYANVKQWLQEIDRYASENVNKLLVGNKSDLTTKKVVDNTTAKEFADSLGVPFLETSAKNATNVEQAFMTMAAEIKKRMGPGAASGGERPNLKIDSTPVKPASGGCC
UniProt P53994: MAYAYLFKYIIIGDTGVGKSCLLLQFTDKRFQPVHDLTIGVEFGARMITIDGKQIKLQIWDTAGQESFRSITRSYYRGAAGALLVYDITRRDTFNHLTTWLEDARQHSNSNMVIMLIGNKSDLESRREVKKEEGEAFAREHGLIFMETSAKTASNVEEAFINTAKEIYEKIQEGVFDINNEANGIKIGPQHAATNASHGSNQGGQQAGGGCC
UniProt P84084: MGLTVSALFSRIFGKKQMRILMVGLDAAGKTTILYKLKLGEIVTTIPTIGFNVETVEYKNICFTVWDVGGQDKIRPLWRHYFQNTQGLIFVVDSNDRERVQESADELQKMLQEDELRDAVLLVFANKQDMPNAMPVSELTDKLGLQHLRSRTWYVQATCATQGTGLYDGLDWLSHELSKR


How the values were obtained:
[1] = molecular target: T1, GST-DNAJ-myc-TAT (recombinant sacsin DNAJ domain, residues 4316-4420 of sacsin) (mouse | not stated); assay: affinity purification with mass spectrometry
[2] = molecular target: T1, GST-DNAJ-myc-TAT (recombinant sacsin DNAJ domain, residues 4316-4420 of sacsin) (mouse | not stated); assay: affinity purification with mass spectrometry; remark: listed apart in the source

binding [1] | binding [2] | Molecule
binds | – | Rab1b (from UniProt Q9D1G1 1-201)
binds | – | Rab2a (from UniProt P53994 1-212)

Continued, molecule first:

Molecule | binding [1] | binding [2]
ARF5 (from UniProt P84084 1-180) | binds | –
Endophilin B2 (protein, UniProt Q8R3V5 1-400) MDFNMKKLASDAGIFFTRAVQFTEEKFGQAEKTELDAHFENLLARADSTKNWTERILRQTEVLLQPNPSARVEEFLYEKLDRKVPSRVTNGELLAQYMAEAASELGPSTPYGKTLIKVSEAEKRLGAAERDFIHTASLSFLTPLRNFLEGDWKTISKERRLLQNRRLDLDACKARLKKAKAAEAKATTVPDFQETRPRNYILSASASALWNDEVDKAEQELRVAQTEFDRQAEVTRLLLEGISSTHVNHLRCLHEFVKSQTTYYAQCYRHMLDLQKQLGSSQGAIFPGTFVGTTEPASPPLSSTSPTTTAATMPVVPTGAVLAPPEEAALCLEEVAPPASGTRKARVLYDYEAADSSELALLADELITVYSLPGMDPDWLIGERGNKKGKVPVTYLELLS | – | binds

— paper doi:10.1101/2024.01.08.574743
